± gives the standard deviation. This is a selection; strong and weak results do not stand in their true shares. Many entries were measured with a wide error.
system: EfPiwi piRISC loaded with piRNA #1 (26 nt); assay: pre-steady-state target cleavage rate (min^-1); guide: piRNA #1 5'p-UGAGGUAGUAGGUUGUAUAGUAUCCA; MIWI and MILI are mouse PIWI proteins and EfPiwi is from a freshwater sponge; tags in brackets are library labels; higher = faster piRNA-guided slicing of the target; details: auxiliary factor: 500 nM Ephydatia muelleri Gtsf1
Outline: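 Active affinity-purified piRISC (1 nM) loaded with one synthetic guide was mixed with a transcribed, DNA-blocked target RNA library (0.1 nM), with or without 500 nM GTSF1 partner protein, in HEPES–potassium acetate buffer at 33 °C for 0–8 or 0–960 min. Uncleaved targets were sequenced, normalised to depth and to weakly complementary targets, and pooled across three trials, with k3 capped at 0.0001 min^-1. The pre-steady-state cleavage rate was determined with a burst-and-steady-state fit.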

Sequence	pre-steady-state target cleavage rate
GGAGACCUUACAAUACAACCUACUAGCUCA	0.00157 ± 0.005
GGAGACGAAACUAUAGAACCUACUACCUCA	0.00291 ± 0.0044
GGAGACCUAUGAUAUGUUCCUGCUACCUCA	0.000164 ± 0.011
GGAGAGGUUUCUAUACAACCUACUACCUCA	0.00427 ± 0.004
GGAGAGGAUACUAAACUACCUACUACCUCA	0.00323 ± 0.003
GGAGACCUAACUAUAGAACCUACUACGUCA	0.00104 ± 0.0037
GGAGACCUAACUAAACAUCCUACUACCUCA	0.00285 ± 0.0043
GGAGACCAUACUUUACAACCUACUACCACA	0.00231 ± 0.0038
GGAGACCUUAGUAUACAACCUACUUCCUCA	0.00151 ± 0.0031
GGAGACGAUACUAUACAACCAACUACCACA	0.00406 ± 0.003
GGAGUGGAUACUAUACUACGUACUACCUCA	0.00381 ± 0.0021
GGAGUGGAUACUACACAACCUACUACCUCA	0.082 ± 0.029
GGAGACCUAUGAUAUGAAGCUACUUCCUCA	0.000145 ± 0.018
GGAGACGAUUCUAUACAACCUACUACGUCA	0.00127 ± 0.0025
GGAGACCUUACUAAACAACCUACUACGUCA	0.000834 ± 0.0065
GGAGACCUAUGAAUACAACCUACUAGGUCA	0.000871 ± 0.0056
GGAGACGAUACUAUAAACCUACUACCUCA	0.00399 ± 0.0041
GGAGACCUAUGUAUACCAACCUACUACCUCA	0.00258 ± 0.005
GGAGACGACACUAUACAACCUACUACCUCA	0.114 ± 0.038
GGAGACCUAACUAUACAACCUACUACGACA	0.00325 ± 0.0029

Sequence	pre-steady-state target cleavage rate
GGAGACCAUACUAUACAACCUAGAUGGAGA [g9:g23:cont:t1A]	0.00356 ± 0.0037
GGAGACCAUACUUUACAAGCUACUACCUCA	0.00123 ± 0.0036
GGAGACCUAUCUUUACAACCUACAACCUCA	0.00153 ± 0.0049
GGAGAGCAUACUAUACAACCUACUACCACA	0.00318 ± 0.0021
GGAGAGGAUACUAUACAUGCUACUACCUCA	0.0065 ± 0.0032
GGAGACCAUACUUUACAACCUACUAGCUCA	0.00215 ± 0.0038
GGAGACCUAACUAUACAUCCUACUACCUGA	0.00344 ± 0.0029
GGAGACCUAUGAUAUGAACGUACUAGCUCA	0.000207 ± 0.02
GGAGUGGAUUGUAUACAACCUACUACCUCA	0.00594 ± 0.0037
GGAGACCUAUGUAUACAUCCUAGUACCUCA	0.00209 ± 0.0043
GGAGUGGAUACUAUACAACCUACUACUUCA	0.104 ± 0.042
GGAGACCUAUCUAAACAAGCUACUACCUCA	0.00043 ± 0.0068
GGAGACCUAACUUUACAACCUACUACGUCA	0.000877 ± 0.009
GGAGUGGAUACAAUACAACCUACUAGCUCA	0.00216 ± 0.0014
GGAGACCUAUGUAUACAUCCUACUAGCUCA	0.000368 ± 0.0049
GGAGACCUAACUAUACAACCUACUUCCACA	0.00364 ± 0.0039
GGAGACCUAUGUAUACAAGCUACUUCCUCA	0.00121 ± 0.0044
GGAGACCAUACUAUACAAGCAACUACCUCA	0.00176 ± 0.0039
GGAGACCAUUCUAUACAACCUACUACCUGA	0.00652 ± 0.0034
GGAGACCUUACUUUACUACCUACUACCUCA	0.00277 ± 0.0046

Some of the entries so far, comma-delimited:
Sequence,pre-steady-state target cleavage rate
GGAGACCUAUCUUUACAACCUACAACCUCA,0.00153 ± 0.0049
GGAGAGCAUACUAUACAACCUACUACCACA,0.00318 ± 0.0021
GGAGAGGAUACUAUACAUGCUACUACCUCA,0.0065 ± 0.0032
GGAGACCAUACUUUACAACCUACUAGCUCA,0.00215 ± 0.0038
GGAGACCUAACUAUACAUCCUACUACCUGA,0.00344 ± 0.0029
GGAGACCUAUGAUAUGAACGUACUAGCUCA,0.000207 ± 0.02
GGAGUGGAUUGUAUACAACCUACUACCUCA,0.00594 ± 0.0037
GGAGACCUAUGUAUACAUCCUAGUACCUCA,0.00209 ± 0.0043
GGAGUGGAUACUAUACAACCUACUACUUCA,0.104 ± 0.042
GGAGACCUAUCUAAACAAGCUACUACCUCA,0.00043 ± 0.0068
